Our source for the binding values is publication PMC12509902, “PRMT1/PRMT5-Mediated Differential Arginine Methylation of CRIP1 Promotes the Recurrence of Small Cell Lung Cancer after Chemotherapy” (International Journal of Biological Sciences, 2025).

By UniProt entry, the sequences of proteins in these tests, tags left out. Where a name states a change or a piece, a line headed by the entry shows the natural chain unless it says otherwise.
UniProt Q99873: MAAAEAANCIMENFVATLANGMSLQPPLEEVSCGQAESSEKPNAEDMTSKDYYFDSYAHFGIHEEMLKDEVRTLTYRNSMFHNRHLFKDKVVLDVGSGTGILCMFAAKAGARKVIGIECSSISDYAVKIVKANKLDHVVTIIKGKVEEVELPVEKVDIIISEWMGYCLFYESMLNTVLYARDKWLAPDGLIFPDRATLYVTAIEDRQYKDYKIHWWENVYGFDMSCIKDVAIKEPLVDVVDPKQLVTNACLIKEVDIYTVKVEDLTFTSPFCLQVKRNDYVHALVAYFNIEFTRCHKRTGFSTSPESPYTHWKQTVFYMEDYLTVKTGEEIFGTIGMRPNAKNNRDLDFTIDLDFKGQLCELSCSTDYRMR
UniProt O14744: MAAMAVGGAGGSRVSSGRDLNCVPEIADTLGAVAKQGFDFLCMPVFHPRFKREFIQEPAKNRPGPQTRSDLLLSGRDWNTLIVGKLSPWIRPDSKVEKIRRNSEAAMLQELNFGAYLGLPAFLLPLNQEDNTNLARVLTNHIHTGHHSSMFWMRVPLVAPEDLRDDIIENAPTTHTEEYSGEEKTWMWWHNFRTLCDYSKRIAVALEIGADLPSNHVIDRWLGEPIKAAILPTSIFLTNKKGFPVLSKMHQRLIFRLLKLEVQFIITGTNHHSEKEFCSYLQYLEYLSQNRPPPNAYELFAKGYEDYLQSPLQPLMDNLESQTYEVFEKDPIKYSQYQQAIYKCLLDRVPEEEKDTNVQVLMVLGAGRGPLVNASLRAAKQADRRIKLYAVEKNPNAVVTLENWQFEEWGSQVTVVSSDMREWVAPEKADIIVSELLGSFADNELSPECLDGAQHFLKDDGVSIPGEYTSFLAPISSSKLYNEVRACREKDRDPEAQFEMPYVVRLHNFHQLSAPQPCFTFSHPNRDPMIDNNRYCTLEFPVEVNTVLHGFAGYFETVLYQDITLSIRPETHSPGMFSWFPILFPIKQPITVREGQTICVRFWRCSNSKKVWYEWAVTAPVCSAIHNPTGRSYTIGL
UniProt P40337: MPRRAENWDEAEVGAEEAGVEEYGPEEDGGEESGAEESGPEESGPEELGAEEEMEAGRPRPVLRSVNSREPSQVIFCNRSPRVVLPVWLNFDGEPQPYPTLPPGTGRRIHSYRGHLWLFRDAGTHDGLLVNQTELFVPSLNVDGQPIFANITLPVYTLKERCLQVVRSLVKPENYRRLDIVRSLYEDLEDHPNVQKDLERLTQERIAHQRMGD

Read-outs that look alike come from different tables or passages of the source. These are yes or no findings as the source states them, for the method shown. For some of these results: In cells and extracts the contact can be indirect. Some results given as binding are weak or reduced against the parent protein; the word gives no strength. For some of these results: Sequences can lack the tags named with a protein.

For experiment [1], the target named is T1, 3×Flag-CRIP1 (cysteine-rich intestinal protein 1), wild type (UniProt P50238).
T1 sequence: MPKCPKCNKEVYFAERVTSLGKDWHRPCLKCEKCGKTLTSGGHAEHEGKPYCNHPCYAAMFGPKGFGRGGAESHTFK
Kind of experiment: co-IP; HEK-293T cells transfected with tagged plasmids; lysis in Buffer A (25 mM Tris-HCl pH 8.0, 10 mM NaCl, 1 mM EDTA, 0.5% NP-40); antibody overnight at 4 °C, Protein A/G magnetic beads, PBS washes, western blot; also after knock-down of PRMT1 or PRMT5. For orientation: Immunoblotting shows a protein as a band on a membrane.

For experiment [2], the target named is T2, GST-CRIP1 (1-57aa) (UniProt P50238).
T2 sequence: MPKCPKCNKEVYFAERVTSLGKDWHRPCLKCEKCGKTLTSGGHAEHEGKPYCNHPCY
Kind of experiment: pull-down; GST-CRIP1 and truncation mutants incubated with HEK-293T lysate or PRMT5-overexpressing HEK-293T lysate; only the target purified.

For experiment [3], the target named is T3, GST-CRIP1 (58-77aa) (UniProt P50238).
T3 sequence: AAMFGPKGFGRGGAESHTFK
Described as above.

Experiment [4] concerns the target PRMT1 (experiments of Fig. S6E and S6G-J) (UniProt Q99873). Kind of experiment: co-IP; co-immunoprecipitation of a pair in cells overexpressing a third protein (CRIP1 WT, R16F or R16K in Fig. S5E; PELI1 in Fig. S6J); cells and constructs not shown.
For experiment [5] the target is unchanged. Briefly: co-IP; co-immunoprecipitation and western blot; cells and constructs not shown (Fig. S5D, S6G-I).
The target of experiment [6] is T4, GST-CRIP1, full-length (FL), wild type (UniProt P50238).
T4 sequence: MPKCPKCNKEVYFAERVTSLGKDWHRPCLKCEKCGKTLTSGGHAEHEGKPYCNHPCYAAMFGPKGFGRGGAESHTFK
Kind of experiment: pull-down; GST pull-down as described in ref. 23; GST-tagged protein expressed in BL21; Flag-tagged protein purified from HEK-293T by Flag affinity gel and 3× FLAG peptide elution; the paper calls the binding direct; both purified.

Experiment [7] concerns the target PRMT1 (endogenous, HEK-293T) (human (endogenous in HEK-293T)) (UniProt Q99873). Briefly: co-IP; HEK-293T cells transfected with tagged plasmids; lysis in Buffer A (25 mM Tris-HCl pH 8.0, 10 mM NaCl, 1 mM EDTA, 0.5% NP-40); antibody overnight at 4 °C, Protein A/G magnetic beads, PBS washes, western blot; also after knock-down of PRMT1 or PRMT5.
In experiment [8] the target is T5, CRIP1 WT (co-immunoprecipitations of Fig. S5D and S5E) (UniProt P50238).
T5 sequence: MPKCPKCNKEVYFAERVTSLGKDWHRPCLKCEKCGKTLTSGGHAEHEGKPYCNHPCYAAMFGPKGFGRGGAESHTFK
Briefly: co-IP; co-immunoprecipitation and western blot; cells and constructs not shown (Fig. S5D, S6G-I).

The target in experiment [9] is PRMT1 (endogenous, HEK-293T) (human (endogenous in HEK-293T)) (UniProt Q99873). Briefly: co-IP; HEK-293T cells transfected with tagged plasmids; lysis in Buffer A (25 mM Tris-HCl pH 8.0, 10 mM NaCl, 1 mM EDTA, 0.5% NP-40); antibody overnight at 4 °C, Protein A/G magnetic beads, PBS washes, western blot; also after knock-down of PRMT1 or PRMT5. The source holds these as a separate data set.

Regarding “PRMT1 (endogenous, HEK-293T) (from UniProt Q99873 1-371) (enzyme)”, the binding result in experiment [1] and in experiment [2] was “binds” in each case. In the case of “PRMT5 overexpressed in HEK-293T (lysate for the GST pull-down with CRIP1 domains) (from UniProt O14744 1-637) (enzyme)”, the binding result in experiment [3] and in [2] was “binds” each time.

For “PRMT5 (co-immunoprecipitations of Fig. S6G-J) (from UniProt O14744 1-637) (enzyme)”, the binding entry in experiment [4] and in experiment [5] was “binds” in each case. With “Flag-PRMT1 (from UniProt Q99873 1-371) (enzyme)”, the binding result in [6] is “binds”.

Regarding “PRMT5 (endogenous, HEK-293T) (from UniProt O14744 1-637) (enzyme)”, the binding entry in experiment [1] was “binds”.

On to “HA-PRMT5 (from UniProt O14744 1-637) (enzyme)”, for which the binding result in [1] is reported as “binds”. With 3×Flag-VHL (from UniProt P40337 1-213), the binding entry in experiment [7] is on record as “binds”.

B1: MKK3 (enzyme, UniProt P46734 1-347)
chain: MESPASSQPASMPQSKGKSKRKKDLRISCMSKPPAPNPTPPRNLDSRTFITIGDRNFEVEADDLVTISELGRGAYGVVEKVRHAQSGTIMAVKRIRATVNSQEQKRLLMDLDINMRTVDCFYTVTFYGALFREGDVWICMELMDTSLDKFYRKVLDKNMTIPEDILGEIAVSIVRALEHLHSKLSVIHRDVKPSNVLINKEGHVKMCDFGISGYLVDSVAKTMDAGCKPYMAPERINPELNQKGYNVKSDVWSLGITMIEMAILRFPYESWGTPFQQLKQVVEEPSPQLPADRFSPEFVDFTAQCLRKNPAERMSYLELMEHPFFTLHKTKKTDIAAFVKEILGEDS
As to B1, the binding entry in experiment [8] is on record as “binds”.

B2: 3×Flag-PELI2 (enzyme, UniProt Q9HAT8 1-420)
chain: MFSPGQEEHCAPNKEPVKYGELVVLGYNGALPNGDRGRRKSRFALYKRPKANGVKPSTVHVISTPQASKAISCKGQHSISYTLSRNQTVVVEYTHDKDTDMFQVGRSTESPIDFVVTDTISGSQNTDEAQITQSTISRFACRIVCDRNEPYTARIFAAGFDSSKNIFLGEKAAKWKNPDGHMDGLTTNGVLVMHPRGGFTEESQPGVWREISVCGDVYTLRETRSAQQRGKLVESETNVLQDGSLIDLCGATLLWRTADGLFHTPTQKHIEALRQEINAARPQCPVGLNTLAFPSINRKEVVEEKQPWAYLSCGHVHGYHNWGHRSDTEANERECPMCRTVGPYVPLWLGCEAGFYVDAGPPTHAFTPCGHVCSEKSAKYWSQIPLPHGTHAFHAACPFCATQLVGEQNCIKLIFQGPID
B2: the binding result in [9] was “binds”.

B3: 3×Flag-PELI3 (enzyme, UniProt Q8N2H9 1-469)
chain: MVLEGNPEVGSPRTSDLQHRGNKGSCVLSSPGEDAQPGEEPIKYGELIVLGCCEEGGEETEAQRGEVTGPRAHSCYNGCLASGDKGRRRSRLALSRRSHANGVKPDVMHHISTPLVSKALSNRGQHSISYTLSRSHSVIVEYTHDSDTDMFQIGRSTENMIDFVVTDTSPGGGAAEGPSAQSTISRYACRILCDRRPPYTARIYAAGFDASSNIFLGERAAKWRTPDGLMDGLTTNGVLVMHPAGGFSEDSAPGVWREISVCGNVYTLRDSRSAQQRGKLVENESNVLQDGSLIDLCGATLLWRTPAGLLRAPTLKQLEAQRQEANAARPQCPVGLSTLAFPSPARGRTAPDKQQPWVYVRCGHVHGYHGWGCRRERGPQERECPLCRLVGPYVPLWLGQEAGLCLDPGPPSHAFAPCGHVCSEKTARYWAQTPLPHGTHAFHAACPFCGAWLTGEHGCVRLIFQGPLD
Turning to B3, the binding entry in experiment [9] was “binds”.
